Results are given in words; binding and its absence hold for the method and conditions named. In cells and extracts the contact can be indirect. Some results given as binding are weak or reduced against the parent protein; the word gives no strength.

Protein sequences, listed by entry. Tags and fused reporters are not part of them.
UniProt Q8VI67: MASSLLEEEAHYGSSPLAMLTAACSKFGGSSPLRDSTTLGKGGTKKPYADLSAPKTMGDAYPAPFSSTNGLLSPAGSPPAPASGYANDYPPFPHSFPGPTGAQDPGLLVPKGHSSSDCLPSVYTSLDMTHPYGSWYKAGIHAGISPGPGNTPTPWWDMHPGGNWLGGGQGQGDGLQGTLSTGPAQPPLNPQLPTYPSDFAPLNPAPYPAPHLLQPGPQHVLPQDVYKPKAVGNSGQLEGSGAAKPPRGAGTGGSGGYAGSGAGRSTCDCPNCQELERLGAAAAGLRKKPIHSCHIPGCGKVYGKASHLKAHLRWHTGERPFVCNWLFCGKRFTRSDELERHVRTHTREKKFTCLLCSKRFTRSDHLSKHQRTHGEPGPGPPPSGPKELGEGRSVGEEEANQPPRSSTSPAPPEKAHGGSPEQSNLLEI
UniProt P37238: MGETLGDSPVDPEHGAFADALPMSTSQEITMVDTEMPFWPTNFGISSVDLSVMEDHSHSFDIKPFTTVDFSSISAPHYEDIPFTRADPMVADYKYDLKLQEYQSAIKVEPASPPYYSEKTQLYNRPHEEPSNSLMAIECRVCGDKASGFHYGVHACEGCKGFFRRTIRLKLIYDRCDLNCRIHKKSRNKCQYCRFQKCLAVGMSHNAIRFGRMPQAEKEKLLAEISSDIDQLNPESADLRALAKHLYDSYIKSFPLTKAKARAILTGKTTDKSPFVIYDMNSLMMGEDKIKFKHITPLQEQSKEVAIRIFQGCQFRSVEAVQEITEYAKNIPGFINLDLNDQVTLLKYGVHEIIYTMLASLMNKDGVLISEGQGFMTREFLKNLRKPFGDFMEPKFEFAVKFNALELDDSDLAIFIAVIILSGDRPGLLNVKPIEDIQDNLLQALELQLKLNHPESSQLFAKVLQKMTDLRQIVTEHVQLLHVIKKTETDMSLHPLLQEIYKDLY

Experiment [1] concerns the target GST-tagged Osterix (mouse) (UniProt Q8VI67). The experiment can be described thus: pull-down; purified GST-Osx incubated with HA-tagged PPARγ constructs overexpressed in 3T3-L1 cells (the legend calls them purified), in separate reactions; bound proteins identified by western blot; only the target purified. (Immunoblotting shows a protein as a band on a membrane.)

In experiment [2] the target is Endogenous PPARγ (mouse (endogenous in 3T3-L1)) (UniProt P37238). Kind of experiment: co-IP; 3T3-L1 cells transfected with Myc-Osterix or empty Myc vector, cultured 3 days in MDI differentiation medium; IP with PPARγ antibody, IB with Myc antibody.
For a further experiment, the target named is HA-PPARγ (UniProt P37238). The experiment can be described thus: co-IP; 3T3-L1 cells transfected with the indicated plasmids; whole cell extracts; IP with HA antibody, western blot with Myc or HA antibodies; lysis buffer 1% NP-40, 25 mM HEPES pH 7.5, 150 mM NaCl, 0.25% sodium deoxycholate.

For HA-PPARγ (from UniProt P37238 1-505), the binding result in experiment [1] is listed as “binds”.
With Myc-Osterix (from UniProt Q8VI67 1-428), the binding result (in experiment [2]; in the experiment with HA-PPARγ) was “binds” each time.

The values above are taken from PMC5067693.
